# Values quoted from earlier work as cited in patent EP2862852B1, “Urea derivatives for the protection of stem cells” (Symrise AG, priority 2013, dated 2015).
# Conditions: water (20° dH) at 20 °C; solid active agent; cited from earlier work
smiles,measurement,value
"Nc1nc2c(ncn2COCCO)c(=O)[nH]1 [Acyclovir, 2-Amino-1,9-dihydro-9-((2-hydroxyethoxy)methyl)-6H-Purin-6-one]",solubility in water,less than 5 g/L
